At least one peptide structure holds a part that was inferred or is arguable (an end, a ring closure or a residue). Ends that are not written are not given here.
System: CTL clone P198.6
Assay: TNF production by CTL clone stimulated with P198 peptide-pulsed sDC
Format: cell-based, mouse

## KYQAVTTTL [P198 peptide]
24 hours co-culture, dose-dependent
  Lowest P198 peptide concentration stimulating TNF secretion: 0.1 nM
TNF secretion
  Peptide concentration at plateau stimulation: approximately 100 nM

From US6716422B1, “Vaccine adjuvants for immunotherapy of melanoma” (ARCH Development Corporation, priority 1998, dated 2004)
